PubChem BioAssay AID504804, Drosophila RNAi Screening Center – 2011

Aim: 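dsRNAs that improve Kc cell survival under doxorubicin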 (primary screen)
System: Drosophila Kc cells
Knock-down reagent: long dsRNA against Drosophila genes, 0.5 µg dsRNA per well
Timing: 96 h (48 h knock-down, then 48 h drug)
Conditions: doxorubicin 5 µg/ml for 48 h, added 48 h after dsRNA
Detection: 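Viability measured as cellular ATP by luminescence after 48 h knock-down then 48 h doxorubicin at 5 µg/ml; unnormalised plate counts for each replicate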
Reading the numbers: raw ATP luminescence: higher = more viable cells, protection from doxorubicin
Rule for the call: 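Active when both duplicate wells lie at least 2 SD above the plate mean and protection is confirmed by rescreening and independent dsRNAs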
The deposit covers about 19,000 reagents; shown is a random part of those with a known target gene and a result. Over the whole deposit, 47 (0.25%) are marked active. 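Signals are raw, not normalised; exact z-scores behind calls not deposited; actives needed confirmation, so some wells reaching 2 SD are inactive.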 The numbers tell different reagents against one gene apart.

{"target gene": "Tsc1 (GeneID 42862)", "reagent no.": 1, "raw ATP luminescence, replicate 1": 43177, "raw ATP luminescence, replicate 2": 42330, "Call": "inactive"}
{"target gene": "homer (GeneID 33944)", "reagent no.": 1, "raw ATP luminescence, replicate 1": 96080, "raw ATP luminescence, replicate 2": 83663, "Call": "inactive"}
{"target gene": "CR31700 (GeneID 8673969)", "reagent no.": 1, "raw ATP luminescence, replicate 1": 90250, "raw ATP luminescence, replicate 2": 1.04e5, "Call": "inactive"}
{"target gene": "CG15760 (GeneID 32324)", "reagent no.": 1, "raw ATP luminescence, replicate 1": 3.30e5, "raw ATP luminescence, replicate 2": 3.16e5, "Call": "inactive"}
{"target gene": "Gbs-70E (GeneID 39588)", "reagent no.": 1, "raw ATP luminescence, replicate 1": 36017, "raw ATP luminescence, replicate 2": 33970, "Call": "inactive"}
{"target gene": "sing (GeneID 32644)", "reagent no.": 1, "raw ATP luminescence, replicate 1": 3.55e5, "raw ATP luminescence, replicate 2": 2.77e5, "Call": "inactive"}
{"target gene": "CG13310 (GeneID 39007)", "reagent no.": 1, "raw ATP luminescence, replicate 1": 91253, "raw ATP luminescence, replicate 2": 86170, "Call": "inactive"}
{"target gene": "CG13751 (GeneID 35879)", "reagent no.": 1, "raw ATP luminescence, replicate 1": 40183, "raw ATP luminescence, replicate 2": 91387, "Call": "inactive"}
{"target gene": "rumpel (GeneID 31674)", "reagent no.": 1, "raw ATP luminescence, replicate 1": 50530, "raw ATP luminescence, replicate 2": 55920, "Call": "inactive"}
{"target gene": "Erk7 (GeneID 31877)", "reagent no.": 1, "raw ATP luminescence, replicate 1": 3.46e5, "raw ATP luminescence, replicate 2": 3.68e5, "Call": "inactive"}
{"target gene": "Erk7 (GeneID 31877)", "reagent no.": 2, "raw ATP luminescence, replicate 1": 3.62e5, "raw ATP luminescence, replicate 2": 3.77e5, "Call": "inactive"}
{"target gene": "CG34228 (GeneID 5740377)", "reagent no.": 1, "raw ATP luminescence, replicate 1": 81267, "raw ATP luminescence, replicate 2": 1.03e5, "Call": "inactive"}
{"target gene": "CG8132 (GeneID 41121)", "reagent no.": 1, "raw ATP luminescence, replicate 1": 62010, "raw ATP luminescence, replicate 2": 43500, "Call": "inactive"}

An excerpt from above, limited to “raw ATP luminescence, replicate 1”:
sing (GeneID 32644) = 3.55e5
CG13310 (GeneID 39007) = 91253
CG13751 (GeneID 35879) = 40183

The listing continues:
{"target gene": "Cyp4p1 (GeneID 45524)", "reagent no.": 1, "raw ATP luminescence, replicate 1": 44220, "raw ATP luminescence, replicate 2": 85517, "Call": "inactive"}
{"target gene": "wntD (GeneID 41633)", "reagent no.": 1, "raw ATP luminescence, replicate 1": 88380, "raw ATP luminescence, replicate 2": 57360, "Call": "inactive"}
{"target gene": "edl (GeneID 37149)", "reagent no.": 1, "raw ATP luminescence, replicate 1": 63163, "raw ATP luminescence, replicate 2": 71177, "Call": "inactive"}
{"target gene": "CG14644 (GeneID 40536)", "reagent no.": 1, "raw ATP luminescence, replicate 1": 63307, "raw ATP luminescence, replicate 2": 61603, "Call": "inactive"}
{"target gene": "sug (GeneID 36424)", "reagent no.": 1, "raw ATP luminescence, replicate 1": 59817, "raw ATP luminescence, replicate 2": 47817, "Call": "inactive"}
{"target gene": "ais (GeneID 39979)", "reagent no.": 1, "raw ATP luminescence, replicate 1": 29503, "raw ATP luminescence, replicate 2": 28483, "Call": "inactive"}
{"target gene": "Atg2 (GeneID 38344)", "reagent no.": 1, "raw ATP luminescence, replicate 1": 87333, "raw ATP luminescence, replicate 2": 57980, "Call": "inactive"}
{"target gene": "CG42717 (GeneID 10178897)", "reagent no.": 1, "raw ATP luminescence, replicate 1": 76180, "raw ATP luminescence, replicate 2": 72337, "Call": "inactive"}
{"target gene": "CG12279 (GeneID 41570)", "reagent no.": 1, "raw ATP luminescence, replicate 1": 69510, "raw ATP luminescence, replicate 2": 62890, "Call": "inactive"}
{"target gene": "CG31793 (GeneID 326161)", "reagent no.": 1, "raw ATP luminescence, replicate 1": 43930, "raw ATP luminescence, replicate 2": 60787, "Call": "inactive"}
{"target gene": "Map60 (GeneID 35991)", "reagent no.": 1, "raw ATP luminescence, replicate 1": 48637, "raw ATP luminescence, replicate 2": 49480, "Call": "inactive"}
{"target gene": "CG16756 (GeneID 31460)", "reagent no.": 1, "raw ATP luminescence, replicate 1": 37460, "raw ATP luminescence, replicate 2": 49160, "Call": "inactive"}
{"target gene": "CG12594 (GeneID 41416)", "reagent no.": 1, "raw ATP luminescence, replicate 1": 62573, "raw ATP luminescence, replicate 2": 57400, "Call": "inactive"}
{"target gene": "pHCl-1 (GeneID 39730)", "reagent no.": 1, "raw ATP luminescence, replicate 1": 84433, "raw ATP luminescence, replicate 2": 76403, "Call": "inactive"}
{"target gene": "pHCl-1 (GeneID 39730)", "reagent no.": 2, "raw ATP luminescence, replicate 1": 49557, "raw ATP luminescence, replicate 2": 36733, "Call": "inactive"}
{"target gene": "pHCl-1 (GeneID 39730)", "reagent no.": 3, "raw ATP luminescence, replicate 1": 53893, "raw ATP luminescence, replicate 2": 43503, "Call": "inactive"}
{"target gene": "Hr38 (GeneID 35332)", "reagent no.": 1, "raw ATP luminescence, replicate 1": 32853, "raw ATP luminescence, replicate 2": 33567, "Call": "inactive"}
{"target gene": "pbl (GeneID 38879)", "reagent no.": 1, "raw ATP luminescence, replicate 1": 36020, "raw ATP luminescence, replicate 2": 35743, "Call": "inactive"}
{"target gene": "Mt2 (GeneID 34632)", "reagent no.": 1, "raw ATP luminescence, replicate 1": 58087, "raw ATP luminescence, replicate 2": 66783, "Call": "inactive"}
{"target gene": "CG4476 (GeneID 39056)", "reagent no.": 1, "raw ATP luminescence, replicate 1": 64030, "raw ATP luminescence, replicate 2": 94527, "Call": "inactive"}
{"target gene": "Odc1 (GeneID 35766)", "reagent no.": 1, "raw ATP luminescence, replicate 1": 61510, "raw ATP luminescence, replicate 2": 47697, "Call": "inactive"}
{"target gene": "CG33773 (GeneID 3772436)", "reagent no.": 1, "raw ATP luminescence, replicate 1": 2.25e5, "raw ATP luminescence, replicate 2": 2.37e5, "Call": "inactive"}
{"target gene": "CG34124 (GeneID 4379887)", "reagent no.": 1, "raw ATP luminescence, replicate 1": 2.99e5, "raw ATP luminescence, replicate 2": 3.03e5, "Call": "inactive"}
